For 69 sequences, median seed-adjusted z-score results are on record in PubChem BioAssay AID1347426 (Functional Genomics Laboratory (NCATS/FGL), 2020).

Hit rate of the full screen: of about 31,000 sequences, about 1,400 (4.5%) were called active.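 Rule for the calls: active = median seed-adjusted z-score above 1 or below -1; inactive = the rest.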 Some of the results follow.

The nature of this test: Novel Modifiers of Survival Motor Neuron (SMN) Protein: Gene Identification via Genome-wide siRNA Screen.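 Note: luminescence tracks full-length SMN protein made from the SMN2 reporter.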 Conditions: HEK293T SMN2-luciferase reporter, siRNA knockdown, 72 h; actives lie on both sides. An excerpt: Spinal muscular atrophy (SMA) is the most common neuromuscular autosomal recessive disorder and one of the leading genetic causes of infant death. SMA results from mutations inducing loss of function or deletion in the survival of motor neuron-1 gene (SMN1), leading to deficiency of the survival motor neuron (SMN) protein. Although a second nearly identical gene, SMN2, is retained in humans, its expression primarily produces an aberrantly spliced isoform that is largely unstable and quickly degraded. We performed a genome-wide RNAi screen using a cell-based reporter assay to identify genes and pathways that modulate SMN protein stability. The screen identified over 200 genes that led to the greatest increase or decrease in luciferase expression.
Using HEK293T cells stably expressing a luciferase reporter that combines the promoter and splicing based cassettes in tandem with the major portion of the native SMN2 cDNA with luciferase, we performed a genome-wide RNAi screen to identify modulators of SMN protein levels. Luciferase is expressed when full-length SMN protein is generated with luminescence signal proportional to SMN protein levels. Our luciferase-based reporter assay was used to screen Ambion Silencer Select Human Druggable Genome siRNA library (10418 genes, 3 unique siRNAs per gene) using lipid-based reverse transfection.
Briefly, 1 pmol of each siRNA was spotted to a well of a 384-well plate (Corning, Corning, NY) and 20 microL of serum-free DMEM containing […] of Lipofectamine RNAiMax (Life Technologies, Carlsbad, CA) was then added to each well. Transfected cells were maintained at 37 degrees C in 5% CO2 for 72 hours, 20 microL of ONE-Glo Reagent (Promega) was added to wells for luciferase quantification. Raw luminescence reads were normalized to Ambion(R) Silencer(R) Negative Control #2 siRNA, then log10 transformed. A robust statistical measure of median absolute deviation (MAD) to standardize siRNA activities from each screen. Common Seed Analysis was used to help prioritize clean hits as opposed to those appearing to arise from seed based off-target effects. Candidate modulators were defined as the genes having a MAD score greater than 1.0 or less than -1.0.
In general terms: A reporter such as luciferase makes a cellular process visible.
Consider GGGAAACUGCUGAUAGUCATT against IKZF2, for which the median seed-adjusted z-score is inactive: 0.514.
As for AGAACCUGCUCAAGAAGGATT against SOX14, the median seed-adjusted z-score is inactive: -0.296.
Take GGAAGCCGAUAUGAUUAAATT against MYT1L: the median seed-adjusted z-score is inactive: -0.43.
As for CCAACCACAUUAUACGAUATT against RBL2, the median seed-adjusted z-score is inactive: 0.0211.
With CCCACGUGGAUAACGAAUATT against CD5, the median seed-adjusted z-score is inactive: 0.0416.
Regarding GAAUGUAAGGAUCAUCAAATT against FTSJ2, the median seed-adjusted z-score was inactive: -0.277.
Turning to GCACACUUGUCACUCGUGUTT against TP53BP1, the median seed-adjusted z-score was inactive: -0.166.
As to GAAUAUCGACAUUACAGAUTT against PPEF2, the median seed-adjusted z-score was inactive: 0.354.
For the sequence AGCCCUUCGUGGUCAAGUUTT against DNASE1L2, the median seed-adjusted z-score was inactive: -0.228.
On to GCUGUGAAGUGUAUCCCUATT against CAMK1D, for which the median seed-adjusted z-score was inactive: -0.0629.
Then CGAUGGGAAUAAUCACGAATT against GFPT2, with inactive: 0.412.
As to GAACAUCGACUUUGCAGAATT against GDA, the median seed-adjusted z-score was inactive: -0.406.
For the sequence GGAGAAAGAAUCAACGGAATT against KAT5, the median seed-adjusted z-score was inactive: 0.32.
Regarding CACCCAGAGUUGAUAAUGATT against SFRS14, the median seed-adjusted z-score was inactive: -0.312.
On to CAGGCGAUCAUGGAGCUGATT against PGAM2, for which the median seed-adjusted z-score is inactive: -0.247.
As to GCCUACAUCUAGUGAAACATT against PHF20L1, the median seed-adjusted z-score is inactive: 0.
GCAUGGACGAGGCAUUGAATT against RGS7: the median seed-adjusted z-score was inactive: 0.415.
As to GUACGAGACCUGUUCCAGATT against UCK2, the median seed-adjusted z-score is active: -1.51.
GGAUCUCUUUCACACGAUUTT against NECAB2: the median seed-adjusted z-score was inactive: -0.286.
Then GUAACAUACUCACCUCGUATT against USP47, with inactive: 0.3; and GCAUUGUGAUCCGAACUAUTT against NPSR1, with inactive: -0.314; and GAAAUUGUGAGGCAGAUGATT against RAP2A, with inactive: -0.727.
As to GCAUUCCAGCUACCCUGAUTT against SPIB, the median seed-adjusted z-score is inactive: 0.0726.
With CCUUGAUAGCAUCCGGUAATT against BHMT, the median seed-adjusted z-score was inactive: 0.
For the sequence GAAGCGUACCAAGACCAUUTT against UNC13B, the median seed-adjusted z-score was inactive: -0.0216.
With GAAAAUUGAGUUUGAACAATT against MYL1, the median seed-adjusted z-score was inactive: 0.24.
CGAUUGCUUUUCUACCAACTT against SCP2: the median seed-adjusted z-score is inactive: 0.413.
In the case of CCUUUGCACUACAUUCGAATT against ASH1L, the median seed-adjusted z-score was inactive: -0.197.
As to GCCUUACUCUGUACAUAGATT against KLF13, the median seed-adjusted z-score was inactive: -0.501.
For the sequence CGGCUGCAUAGAAAACGUATT against CNTNAP1, the median seed-adjusted z-score was inactive: 0.176.
Regarding AGUGAGAUUUGAAGAGAUUTT against ADC, the median seed-adjusted z-score was inactive: -0.157.
Then CGAACAGUCUGAAUACGAATT against PCDHA6, with inactive: 0.419; and GAAUCGAGCUCAUCCGAAUTT against CAPN9, with inactive: 0.417; and GGUACACUCUGUGUGCCCATT against EGFL7, with inactive: 0.8.
For GGAAUAGCAUGGUUGAGGATT against SLC22A3 the value was inactive: 0.126.
For AGGUUUAUGAUGAUAAAGATT against NDUFS6 the value was inactive: -0.0128; for GAAGUGCAGUUGGAAAGCATT against NAT11, inactive: 0.37; for CAAUUACCUUGAAGAAGUUTT against PJA1, inactive: -0.275.
As to GCACACUAGCUGAACUAAATT against BUB1B, the median seed-adjusted z-score was inactive: -0.579.
In the case of AGAUCCCUUUCAUUCGAGATT against SOX4, the median seed-adjusted z-score is inactive: -0.188.
CUAAGAAACCUAAUGUUGATT against TAF9B: the median seed-adjusted z-score was inactive: -0.0247.
On to CCAGAGAAAUGAGAUUGGATT against ZNF195, for which the median seed-adjusted z-score is inactive: 0.0753.
Take GGACCAUUUGGAUUGUGCATT against SPPL2A: the median seed-adjusted z-score was inactive: -0.358.
Then GCCGCAAUAUUUUCCGCAATT against HUNK, with inactive: -0.183.
Regarding GGAACAUCAUUAAGAAUGATT against NEIL2, the median seed-adjusted z-score was inactive: -0.256.
In the case of GGACUGUAAGGAUGAUCUATT against SUPV3L1, the median seed-adjusted z-score was inactive: -0.169.
In the case of GUUACGAUGUCACAGAGUATT against MPRIP, the median seed-adjusted z-score was inactive: 0.238.
For GAACAGGAGGUGAUACUGATT against COL20A1 the value was inactive: -0.0033; for CUCUCGCAGUGUUAUCGGATT against CPB1, inactive: -0.376; for GCAGUCUAUUUGUUAUAGATT against CDH9, inactive: -0.18.
Regarding GAAACCUUCUACAAGCAUATT against GALNTL2, the median seed-adjusted z-score was inactive: 0.164.
Regarding GGCUUGCGCAAGAUCAAUATT against ATRNL1, the median seed-adjusted z-score was inactive: -0.142.
With CCAUUAACCACAUACCAGATT against TLR7, the median seed-adjusted z-score was inactive: 0.189.
As for GGUUACGUGUUAUCUACAATT against LRBA, the median seed-adjusted z-score was inactive: 0.219.
Consider CCAUGCUCGUGGUGCACAATT against B3GNT7, for which the median seed-adjusted z-score is active: -1.05.
For GCUUUUACCUUUACAGUCATT against USP37 the value was inactive: 0.0907.
With CCUACAACCUCAUUCGCAATT against PIK3C2B, the median seed-adjusted z-score was inactive: -0.653.
As for GAUCAUAAGCUGCCCAACATT against HOXD4, the median seed-adjusted z-score was inactive: 0.566.
As to GAUUAGUCUCCAUCAAUAATT against F2R, the median seed-adjusted z-score was inactive: -0.392.
For the sequence GACUAUCCCGCUGCCCUUUTT against B3GNT8, the median seed-adjusted z-score was inactive: 0.236.
In the case of GUGGAUAACUCAUCCUUAATT against ATP1A2, the median seed-adjusted z-score was inactive: 0.248.
Regarding CCAUGGACAACUACCCUAATT against EGR1, the median seed-adjusted z-score was inactive: 0.0836.
For CCUUAUUCCUGUUCUCAGUTT against ZNF200 the value was inactive: 0.498.
Turning to CAAAGAACGAUGAGAAUAATT against PCDHA8, the median seed-adjusted z-score is inactive: 0.
As to GGAUUUCCCUCUGUGGGUATT against DRG2, the median seed-adjusted z-score is inactive: -0.175.
For CACCGCAUAUUAAAACGUATT against PTEN the value was inactive: -0.408; for GGAUGACGAGCUGAACUUUTT against MGRN1, inactive: -0.318.
Then UGAAAAACAUUAACAAGCATT against RNASE7, with active: 1.07; and CCAACCAUAUCUACACUUATT against MYO5B, with inactive: -0.212.
